Results are given in words; binding and its absence hold for the method and conditions named. For some of these results: Binding seen in cells or lysates may run through a third protein. Some binding calls cover weakened binding; strength is not graded here. Sequences can lack the tags named with a protein.
T1: myc-Rad3-kdΔ (truncated Rad3^ATR lacking the kinase domain) (S. pombe) (UniProt Q02099)
T1 sequence: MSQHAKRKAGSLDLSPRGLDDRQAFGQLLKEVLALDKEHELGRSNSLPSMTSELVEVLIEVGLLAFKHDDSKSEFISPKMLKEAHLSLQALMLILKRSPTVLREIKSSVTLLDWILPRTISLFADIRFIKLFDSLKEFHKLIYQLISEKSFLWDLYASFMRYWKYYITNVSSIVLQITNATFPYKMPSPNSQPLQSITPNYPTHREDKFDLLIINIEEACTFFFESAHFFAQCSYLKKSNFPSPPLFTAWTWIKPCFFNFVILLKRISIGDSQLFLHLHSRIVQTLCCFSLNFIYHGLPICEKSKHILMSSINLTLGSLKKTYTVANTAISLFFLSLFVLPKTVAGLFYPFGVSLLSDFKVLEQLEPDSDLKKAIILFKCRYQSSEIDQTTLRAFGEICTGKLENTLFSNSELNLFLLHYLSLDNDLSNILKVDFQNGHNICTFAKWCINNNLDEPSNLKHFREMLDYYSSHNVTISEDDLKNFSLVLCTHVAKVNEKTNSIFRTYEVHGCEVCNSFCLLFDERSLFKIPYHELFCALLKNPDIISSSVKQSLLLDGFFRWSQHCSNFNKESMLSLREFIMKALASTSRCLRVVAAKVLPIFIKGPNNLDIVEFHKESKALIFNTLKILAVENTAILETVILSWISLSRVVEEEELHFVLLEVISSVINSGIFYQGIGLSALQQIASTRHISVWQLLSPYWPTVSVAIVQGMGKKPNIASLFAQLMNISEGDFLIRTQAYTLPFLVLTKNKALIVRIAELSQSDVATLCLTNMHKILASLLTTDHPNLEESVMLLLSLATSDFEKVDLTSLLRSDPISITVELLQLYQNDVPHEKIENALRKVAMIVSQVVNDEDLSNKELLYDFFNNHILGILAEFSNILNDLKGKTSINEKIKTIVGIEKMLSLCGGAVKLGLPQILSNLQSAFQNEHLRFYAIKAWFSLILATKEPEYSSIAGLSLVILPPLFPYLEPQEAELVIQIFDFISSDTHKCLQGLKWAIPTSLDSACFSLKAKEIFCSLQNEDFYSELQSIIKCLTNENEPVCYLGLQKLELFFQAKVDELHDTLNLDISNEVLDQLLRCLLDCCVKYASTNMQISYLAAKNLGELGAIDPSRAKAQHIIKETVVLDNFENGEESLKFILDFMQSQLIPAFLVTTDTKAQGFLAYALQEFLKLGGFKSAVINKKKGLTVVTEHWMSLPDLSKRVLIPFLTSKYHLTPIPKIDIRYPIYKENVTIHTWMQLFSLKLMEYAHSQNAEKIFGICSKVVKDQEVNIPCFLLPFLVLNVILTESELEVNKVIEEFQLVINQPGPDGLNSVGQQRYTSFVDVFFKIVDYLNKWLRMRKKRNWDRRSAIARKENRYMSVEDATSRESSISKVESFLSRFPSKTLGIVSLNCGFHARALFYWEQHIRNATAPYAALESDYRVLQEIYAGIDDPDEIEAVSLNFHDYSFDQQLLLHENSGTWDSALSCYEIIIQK

T2: C-terminal truncation of Rad3 (Rad3-kdΔ), two-hybrid fusion (S. pombe) (UniProt Q02099)
T2 sequence: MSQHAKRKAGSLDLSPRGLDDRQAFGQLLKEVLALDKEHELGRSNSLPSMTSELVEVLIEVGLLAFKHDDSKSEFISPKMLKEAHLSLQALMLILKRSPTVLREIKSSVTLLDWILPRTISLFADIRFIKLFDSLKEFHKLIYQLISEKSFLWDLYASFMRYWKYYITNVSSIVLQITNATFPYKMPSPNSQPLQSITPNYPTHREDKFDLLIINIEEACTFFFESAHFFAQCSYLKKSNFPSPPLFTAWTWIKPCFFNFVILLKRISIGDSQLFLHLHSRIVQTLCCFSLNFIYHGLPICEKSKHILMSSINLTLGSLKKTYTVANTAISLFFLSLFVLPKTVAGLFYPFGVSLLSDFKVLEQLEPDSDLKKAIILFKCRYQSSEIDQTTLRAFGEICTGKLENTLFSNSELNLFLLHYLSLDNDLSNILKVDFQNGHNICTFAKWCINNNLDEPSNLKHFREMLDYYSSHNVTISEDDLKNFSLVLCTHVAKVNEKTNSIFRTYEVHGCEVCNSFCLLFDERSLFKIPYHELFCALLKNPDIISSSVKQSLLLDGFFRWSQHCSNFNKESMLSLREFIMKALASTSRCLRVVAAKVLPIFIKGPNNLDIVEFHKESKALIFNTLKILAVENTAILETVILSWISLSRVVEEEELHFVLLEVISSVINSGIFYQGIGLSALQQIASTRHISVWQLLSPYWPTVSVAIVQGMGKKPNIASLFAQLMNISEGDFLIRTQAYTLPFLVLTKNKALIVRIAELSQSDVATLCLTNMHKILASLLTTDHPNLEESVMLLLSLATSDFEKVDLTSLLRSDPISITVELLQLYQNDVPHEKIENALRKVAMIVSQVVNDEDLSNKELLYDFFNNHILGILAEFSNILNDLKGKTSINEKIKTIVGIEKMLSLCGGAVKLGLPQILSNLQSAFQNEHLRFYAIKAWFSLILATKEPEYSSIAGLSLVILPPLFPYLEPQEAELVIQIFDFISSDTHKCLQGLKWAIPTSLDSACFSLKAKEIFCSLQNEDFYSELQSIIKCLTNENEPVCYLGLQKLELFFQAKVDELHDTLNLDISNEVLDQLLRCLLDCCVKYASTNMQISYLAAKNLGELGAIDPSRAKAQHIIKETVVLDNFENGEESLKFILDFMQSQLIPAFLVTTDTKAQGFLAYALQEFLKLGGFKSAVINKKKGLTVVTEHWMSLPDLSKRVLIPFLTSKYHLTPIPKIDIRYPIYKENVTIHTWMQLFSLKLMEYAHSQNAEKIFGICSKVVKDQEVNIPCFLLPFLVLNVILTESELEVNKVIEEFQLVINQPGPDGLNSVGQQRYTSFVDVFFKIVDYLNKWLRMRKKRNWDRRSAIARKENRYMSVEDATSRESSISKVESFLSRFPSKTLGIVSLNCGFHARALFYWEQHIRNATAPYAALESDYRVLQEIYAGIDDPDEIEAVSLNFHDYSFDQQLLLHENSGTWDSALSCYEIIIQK


Columns and labels:
[1] = molecular target: T1, myc-Rad3-kdΔ (truncated Rad3^ATR lacking the kinase domain) (S. pombe); assay: co-IP; anti-myc immunoprecipitation from S. pombe cell extracts (lysis buffer 2: 25mM Tris pH7.5, 100mM NaCl, 0.1% NP40, 1% Triton) of strains expressing YFP-Rad26 and myc-Rad3 or myc-Rad3-kdΔ; anti-GFP western blot
[2] = molecular target: wild-type myc-Rad3 (Rad3^ATR) (S. pombe) (UniProt Q02099); assay: as above
[3] = molecular target: full-length Rad3 (Rad3+), two-hybrid fusion (S. pombe) (UniProt Q02099); assay: two-hybrid; GAL4-DBD and GAL4-AD plasmids in mated S. cerevisiae strains (…); growth on SD-HTL (-His) plates
[4] = molecular target: T2, C-terminal truncation of Rad3 (Rad3-kdΔ), two-hybrid fusion (S. pombe); assay: as above

binding [1]	binding [2]	binding [3]	binding [4]	Binder
binds	binds	–	–	YFP-Rad26 (Rad26^ATRIP) (protein, UniProt P36632 1-614) MMADESFDLESLGSDEIFEGVNLDELEQQAQTQVQAQSSQVVVPSEKQKQNLNLPNSYTNSSQKVRESTVNSQASLSSNDLRTELLIKSGENAILRANLLKQSEANNAALESLNNSIKQKQDEYQRKLEELKKEIEYAKTKSLFHEREAQDAIETMKKMKRDVKNSPIMKKSHEEDGDNKLLSSSDQLAKSTKHAAKNSPSKKKRKTSVATAEDASTDSVSSSIAISDASLSLSLMKDLLSLQKREDLYFSSRTLAYVFGGCMHSLETIEGEEEGECLFNNLKALIYSPDLSMDSSNYVQSVVQTSSSILNYSMKKLLYNASFAITSLFNALLILDPKSSTFIFQENVVSLISGFLLKEYEKSNFLDSKFYVLIDFLYLYLSIARESADDFANITKAVDPSLFESCIRVQNAPSLIKCGVCLIISSTTPSFCASVNLLNADDKSQESLMQLFTTMAHILVVTTRERINFPELNEWITLHRFVISFFTVFIQMSGNIGKEILKVCNPLIVCIGLAITWYHQQLLSSMYPQNECVEILVSLVRLLYILSSEDLSSKFMLAENALQPRFVYAIACCAFGDTEQKAFGNLGEEMYFLTTELLEVCVSPEELEQLYTNF
–	–	binds	binds	S. pombe Rad26, two-hybrid fusion (protein, UniProt P36632 1-614) MMADESFDLESLGSDEIFEGVNLDELEQQAQTQVQAQSSQVVVPSEKQKQNLNLPNSYTNSSQKVRESTVNSQASLSSNDLRTELLIKSGENAILRANLLKQSEANNAALESLNNSIKQKQDEYQRKLEELKKEIEYAKTKSLFHEREAQDAIETMKKMKRDVKNSPIMKKSHEEDGDNKLLSSSDQLAKSTKHAAKNSPSKKKRKTSVATAEDASTDSVSSSIAISDASLSLSLMKDLLSLQKREDLYFSSRTLAYVFGGCMHSLETIEGEEEGECLFNNLKALIYSPDLSMDSSNYVQSVVQTSSSILNYSMKKLLYNASFAITSLFNALLILDPKSSTFIFQENVVSLISGFLLKEYEKSNFLDSKFYVLIDFLYLYLSIARESADDFANITKAVDPSLFESCIRVQNAPSLIKCGVCLIISSTTPSFCASVNLLNADDKSQESLMQLFTTMAHILVVTTRERINFPELNEWITLHRFVISFFTVFIQMSGNIGKEILKVCNPLIVCIGLAITWYHQQLLSSMYPQNECVEILVSLVRLLYILSSEDLSSKFMLAENALQPRFVYAIACCAFGDTEQKAFGNLGEEMYFLTTELLEVCVSPEELEQLYTNF

From PMC2816689
